Assay results as given in PubChem BioAssay AID1794845 (National Center for Advancing Translational Sciences (NCATS), 2023).
Out of some 6,900 compounds screened, fewer than 10 were called active. The call rests on the fitted dose curve; in most records, active means well fitted curve in the direction sought with a large enough effect; inconclusive means small, poorly fitted or top-dose-only effect, or another doubt; inactive means no such curve, though single readings can be large or run the other way. Some of the results follow.

Amino acid sequences for entries named in this document (tags omitted). A change or cut given only in a name is not applied to a line headed by its entry.
UniProt C7C422: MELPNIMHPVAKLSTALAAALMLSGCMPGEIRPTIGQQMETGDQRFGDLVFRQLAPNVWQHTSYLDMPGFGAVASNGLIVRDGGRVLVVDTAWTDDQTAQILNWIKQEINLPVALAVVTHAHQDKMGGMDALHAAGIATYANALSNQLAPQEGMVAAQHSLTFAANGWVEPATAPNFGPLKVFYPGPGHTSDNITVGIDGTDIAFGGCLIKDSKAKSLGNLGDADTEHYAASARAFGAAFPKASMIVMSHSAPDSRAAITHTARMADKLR

target: Metallo-beta-lactamase type 2 (Klebsiella pneumoniae) (UniProt C7C422); experiment: qHTS to identify inhibitors of the New Delhi Metallo-beta-lactamase (NDM): primary screen against the NCATS Gemini Collection; conditions: NDM-1 enzyme, meropenem hydrolysis, absorbance 300 nm; at 38.4 µM (top of the series) unless noted; further: % of control where 0% means no effect
In short: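 NDM-1 at 2 nM final in 50 mM HEPES pH 7.0, 1 uM ZnSO4, 0.01% Tween20, preincubated >30 min with compound. Meropenem 50 uM final added; absorbance at 300 nm after 30 min.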

Activity % (negative = inhibition), inactive:
COCCc1noc(CNC(=O)c2ccc(-c3ccccc3Cl)o2)n1 20.8%
CCOCCCNC(=O)c1cc2cn(C3CC3)cc2s1 3.22%
O=C1NCc2ccccc2CC12CCCN2Cc1ccc(F)cc1F (stereo not given) 1.41%
O=C1Nc2ccc(-c3ccsc3)cc2C(=O)N2CCN(C(=O)CO)C[C@H]12 7.77% [at 57.5 µM]
CCn1cc(S(=O)(=O)N2CCC(c3noc(-c4ccncc4)n3)C2)cn1 (stereo not given) -3.52%
CCCC(=O)N1Cc2ccccc2CC2(CCCN(Cc3ccccn3)C2)C1 (stereo not given) -5.79%
O=C(NCc1c[nH]c2ncccc12)c1ccccc1Cl -0.0313% [at 57.5 µM]
c1ccc2cc(-c3noc([C@@H]4Cc5nc[nH]c5CN4CC4CCCCC4)n3)ccc2c1 63.5% [at 57.5 µM]
CN[C@@H](C)C(=O)N1CCC(c2cc(N3CCOCC3)nc(C)n2)CC1 -7.44%
COCC(=O)N[C@H]1CCN(C(=O)COC)[C@H](C(=O)N[C@@H](Cc2cccs2)C(N)=O)C1 0.56%
NC(=O)[C@H](CC1CCCCC1)NC(=O)[C@@H]1CN(C(=O)Nc2ccccc2)CCN1S(=O)(=O)c1ccccc1 2.27%
COc1ccc(CC(=O)N2CCCC2C(=O)N2CCC(c3nc4ccncc4[nH]3)C2)cc1 (stereo not given) -2.24%
C[C@@]1(O)CCN(C(=O)c2cccc(F)c2)C[C@H]1N1CCCC1 0.632%
CNC(=O)c1cc(C2CC2)nc2c1c(C1CCN(C(=O)Cc3ccc(OC)cc3)CC1)nn2C 3.96%
CC(C)N1CCN(C(=O)C2CCN(c3cnn(CC4CC4)c(=O)c3)C2)CC1 (stereo not given) 8.43%
CC(C)c1noc(C2CCCN(S(=O)(=O)c3cccs3)CCC(=O)NCC2)n1 (stereo not given) -16.5%
CC(C)C[C@H]1NC(=O)[C@@H]2C[C@@H](NC(=O)CS(=O)(=O)c3ccccc3)CCN2C1=O 5.22% [at 57.5 µM]
CCn1ncc(CN2CC[C@@H]3CN(S(C)(=O)=O)[C@@H]3C2)c1C -2.7%
CNC(=O)C(C)(C)N1CCC[C@H]1C(=O)NC1CCCCC1 -1.25% [at 57.5 µM]
O=C1NC2(CCCN([S+](=O)([O-])c3ccsc3)C2)COc2ccccc21 (stereo not given) 1.62%
COc1cc(SC)ccc1C(=O)N[C@H]1CCN2C(=O)N(c3cccc(C(F)(F)F)c3)C(=O)[C@@H]2C1 -1.8%
CCOC(=O)c1cn(C2CN(C(=O)Cc3cccc(Cl)c3)C2)nn1 -0.217%
CCC(=O)N(C1CCOCC1)C1CCN(Cc2ccc(SC)cc2)CC1 50%
O=C1CCN(C(=O)Cc2ccccc2)CCCOCCN1 9.17%
COC(=O)[C@@H]1Cc2ncn(Cc3ccc(OC)cc3)c2CN1S(=O)(=O)c1ccccc1 -8.42%
CCC[C@@H]1CN(C(=O)c2cc(-c3cccs3)n(C)n2)C[C@H]1N(C)C 8.73%
CNC(=O)c1noc([C@@H]2CC(F)(F)CN2Cc2cccn2C)n1 -0.383%
CC(C)[C@H]1CN(CCS(C)(=O)=O)C[C@@H]1NC(=O)c1ccco1 -2.79%
Cc1ccccc1OCc1nc(C2CN(C(=O)c3nccc4ccccc34)C2)no1 -0.572%
COCCn1c(CO)nnc1C1CC(NC(=O)c2cc(C)n3nc(C)cc3n2)C1 (stereo not given) 7.18%
O=C(c1ccco1)N1CCC(N2CC3(CCCC3)C2c2ccccc2)CC1 (stereo not given) 5.34%
Cc1nc(C)c(C(=O)N2CCC(c3nnc(Cn4ccnc4)n3C)CC2)o1 3.06%
COc1ccc(-c2cnc3[nH]cc(CC(=O)Nc4ccc(C(F)(F)F)cc4)c3c2)cc1 80.1% [at 57.5 µM]
O=C(NCC1(O)CCCNCC1)c1cccc(-c2ccc(F)cc2)c1 (stereo not given) -3.46%
CCn1ccnc1CN1CCCC(CO)(Cc2cccc(Cl)c2)C1 (stereo not given) -11.4%
CCCC1CN(Cc2ccc(OC)cc2)[S+](=O)([O-])c2cnccc2O1 (stereo not given) 1.9%
Cc1ccc(-c2noc(CNC(N)=O)n2)nn1 0.545%
COCc1ncc(C)n1CCNC(=O)c1ccc(OC)nc1OC 26.7%
Cn1cc(CN2C[C@H](C(=O)Nc3ccc(F)cc3)C[C@@H]2c2cccc(C(F)(F)F)c2)cn1 1.12%
CNC(=O)N1CCCC1c1nc(C2CN(C(=O)c3cnccn3)C2)no1 (stereo not given) 2.19%
COc1ccc(C(C)NC(=O)c2noc(-c3ccc(F)cc3)n2)cc1OC (stereo not given) -1.9%
COc1ccc(F)cc1-c1cccc(C(=O)NCC(=O)NCc2cccs2)c1 0.401%
C[C@H]1CCCN1C(=O)c1nnc(CNCCCn2ccnc2)n1-c1ccccc1 9.2% [at 57.5 µM]
CCCN1C(=O)CCc2cc(NC(=O)NCCCOCC)ccc21 9.71%
Cc1cc(C(=O)N2CCCC(n3c(C)cnc3C3CCC3)C2)nn1C (stereo not given) 10.5%
Cc1ccc(CN2CCOCCNC(=O)[C@H]3CCCC[C@H]32)s1 -2.39%
Cc1cc(CN(C)C(=O)c2cc(COc3ccc4c(c3)OCO4)[nH]n2)on1 -0.402%
CC(C)N1C[C@@H](COC(C)(C)C)[C@H](c2ccccc2)[S+]1(=O)[O-] 24.4%
CN1CCN(S(=O)(=O)c2ccc(F)cc2)CC12CCNC(=O)CC2 (stereo not given) -0.368%
Cc1nn(-c2ccccc2)c(C)c1Cc1nc(C(C)C)no1 10.3%
CCN1Cc2ccccc2N(CC(O)Cc2ccccc2)CCC1=O (stereo not given) 8.16%
O=C(O)CO[C@@H]1COCC[C@H]1NC(=O)CCCn1cncn1 -4%
Cn1cc(-c2cnc(Nc3ccc(F)c(Cl)c3)c3c2CCO3)cn1 5.13% [at 57.5 µM]
COc1ccc(N2CCN(C(=O)CC3CCCCN(C)C3=O)CC2)cc1 (stereo not given) -1.54%
O=C(c1ccc(F)cc1)N1CCC2(CNc3ccccc3[S+](=O)([O-])N2)C1 (stereo not given) 2.82%

Four records picked at random from the list so far:
Activity % (negative = inhibition), inactive:
O=C1NC2(CCCN([S+](=O)([O-])c3ccsc3)C2)COc2ccccc21 (stereo not given) 1.62%
CCOC(=O)c1cn(C2CN(C(=O)Cc3cccc(Cl)c3)C2)nn1 -0.217%
O=C1Nc2ccc(-c3ccsc3)cc2C(=O)N2CCN(C(=O)CO)C[C@H]12 7.77% [at 57.5 µM]
Cc1ccc(CN2CCOCCNC(=O)[C@H]3CCCC[C@H]32)s1 -2.39%
